Where a name gives a salt, the structure may show the parent alone. This is one part of the list. Repeats in this data set agree poorly, so a single value says little.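 Human fetal ventral-midbrain neural progenitor line ReNCell VM, differentiated without mitogens. Images stained for doublecortin (early neurons) or tyrosine hydroxylase (dopaminergic neurons) were scored by blinded raters against untreated wells (0 = no change). Repeats and both raters were averaged, and compounds averaging 2 or higher were picked as hits for retesting.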 Where a SMILES comes first, the peptide text is derived from it.
Legend:
ReNCell VM [1] = experiment: neuronal differentiation score (DCX+ cell fraction vs untreated, manual image score) (score (-3 to 3)); higher = more neuronal differentiation; conditions: 2 uM, 2 weeks
ReNCell VM [2] = experiment: dopaminergic neuron differentiation score (TH+ cell fraction vs untreated, manual image score) (score (0 to 3)); higher = more TH+ dopaminergic neuron differentiation; conditions: 2 uM, 4 weeks, BDNF 10 ng/ml + GDNF 10 ng/ml

COc1ccc(-c2ccc(=N)n(CCCC(=O)O)n2)cc1
inactive: neuronal differentiation score (ReNCell VM [1]; library: LOPAC) 0 | neuronal differentiation score (ReNCell VM [1]; library: Tocriscreen) 0 | dopaminergic neuron differentiation score (ReNCell VM [2]; library: LOPAC) 0 | dopaminergic neuron differentiation score (ReNCell VM [2]; library: Tocriscreen) 0

CN1CC2c3ccccc3Oc3ccc(Cl)cc3C2C1 (stereo not drawn) [Asenapine maleate]
inactive: neuronal differentiation score (ReNCell VM [1]; library: Prestwick) 0 | neuronal differentiation score (ReNCell VM [1]; library: Tocriscreen) 0 | dopaminergic neuron differentiation score (ReNCell VM [2]; library: Prestwick) 0 | dopaminergic neuron differentiation score (ReNCell VM [2]; library: Tocriscreen) 0

CCOc1ccccc1OC(c1ccccc1)C1CNCCO1 (stereo not drawn) [Reboxetine mesylate]
inactive: neuronal differentiation score (ReNCell VM [1]; library: Prestwick) 0 | neuronal differentiation score (ReNCell VM [1]; library: Tocriscreen) 0 | dopaminergic neuron differentiation score (ReNCell VM [2]; library: Prestwick) 0 | dopaminergic neuron differentiation score (ReNCell VM [2]; library: Tocriscreen) 0

CNCC[C@@H](Oc1ccccc1C)c1ccccc1 [Tomoxetine hydrochloride]
inactive: neuronal differentiation score (ReNCell VM [1]; library: Prestwick) 0 | neuronal differentiation score (ReNCell VM [1]; library: Tocriscreen) 0 | dopaminergic neuron differentiation score (ReNCell VM [2]; library: Prestwick) 0 | dopaminergic neuron differentiation score (ReNCell VM [2]; library: Tocriscreen) 0

CC(C)OC(=O)C(C)(C)Oc1ccc(C(=O)c2ccc(Cl)cc2)cc1 [Fenofibrate]
inactive: neuronal differentiation score (ReNCell VM [1]; library: LOPAC) 1 | neuronal differentiation score (ReNCell VM [1]; library: Prestwick) 0 | dopaminergic neuron differentiation score (ReNCell VM [2]; library: LOPAC) 0 | dopaminergic neuron differentiation score (ReNCell VM [2]; library: Prestwick) 0

COC(=O)[C@H](NC(=O)c1cc(-c2ccccc2)nc2ccccc12)c1ccccc1
inactive: neuronal differentiation score (ReNCell VM [1]; library: LOPAC) 0 | neuronal differentiation score (ReNCell VM [1]; library: Tocriscreen) 0 | dopaminergic neuron differentiation score (ReNCell VM [2]; library: LOPAC) 0 | dopaminergic neuron differentiation score (ReNCell VM [2]; library: Tocriscreen) 0

C[C@H](CS)C(=O)N1CCC[C@H]1C(=O)O [Captopril]
inactive: neuronal differentiation score (ReNCell VM [1]; library: LOPAC) 0 | neuronal differentiation score (ReNCell VM [1]; library: Prestwick) 0 | dopaminergic neuron differentiation score (ReNCell VM [2]; library: LOPAC) 0 | dopaminergic neuron differentiation score (ReNCell VM [2]; library: Prestwick) 0

CCC(C)N(C)C(=O)c1cc2ccccc2c(-c2ccccc2Cl)n1 (stereo not drawn)
inactive: neuronal differentiation score (ReNCell VM [1]; library: LOPAC) 0 | neuronal differentiation score (ReNCell VM [1]; library: Tocriscreen) 0 | dopaminergic neuron differentiation score (ReNCell VM [2]; library: LOPAC) 0 | dopaminergic neuron differentiation score (ReNCell VM [2]; library: Tocriscreen) 0

O=C(O)c1cc(O)c2ccc(Cl)cc2n1 [7-Chlorokynurenic acid]
inactive: neuronal differentiation score (ReNCell VM [1]; library: LOPAC) 0 | neuronal differentiation score (ReNCell VM [1]; library: Tocriscreen) 0 | dopaminergic neuron differentiation score (ReNCell VM [2]; library: LOPAC) 0 | dopaminergic neuron differentiation score (ReNCell VM [2]; library: Tocriscreen) 0

COc1ccc(-n2[nH]c3c4c(ncc3c2=O)CCCCC4)cc1
inactive: neuronal differentiation score (ReNCell VM [1]; library: Tocriscreen) 0 | dopaminergic neuron differentiation score (ReNCell VM [2]; library: Tocriscreen) 0

C#C[C@]1(O)CC[C@H]2[C@@H]3CCC4=Cc5oncc5C[C@]4(C)[C@H]3CC[C@@]21C [Danazol]
inactive: neuronal differentiation score (ReNCell VM [1]; library: LOPAC) 0 | neuronal differentiation score (ReNCell VM [1]; library: Prestwick) 0 | dopaminergic neuron differentiation score (ReNCell VM [2]; library: LOPAC) 0 | dopaminergic neuron differentiation score (ReNCell VM [2]; library: Prestwick) 0

CCOC(=O)N1CCC(=C2c3ccc(Cl)cc3CCc3cccnc32)CC1 [Loratadine]
inactive: neuronal differentiation score (ReNCell VM [1]; library: LOPAC) 0 | neuronal differentiation score (ReNCell VM [1]; library: Prestwick) 0 | dopaminergic neuron differentiation score (ReNCell VM [2]; library: LOPAC) 0 | dopaminergic neuron differentiation score (ReNCell VM [2]; library: Prestwick) 0

CC1(C)CCC2=C(O1)c1ccccc1C(=O)C2=O [beta-lapachone]
inactive: neuronal differentiation score (ReNCell VM [1]; library: Natural) 0 | neuronal differentiation score (ReNCell VM [1]; library: Phytochemical) 0 | dopaminergic neuron differentiation score (ReNCell VM [2]; library: Natural) 0 | dopaminergic neuron differentiation score (ReNCell VM [2]; library: Phytochemical) 0

O=C(Nc1ccc([N+](=O)[O-])cc1Cl)c1cc(Cl)ccc1O [Niclosamide]
inactive: neuronal differentiation score (ReNCell VM [1]; library: LOPAC) 0 | neuronal differentiation score (ReNCell VM [1]; library: Prestwick) -1 | dopaminergic neuron differentiation score (ReNCell VM [2]; library: LOPAC) 0 | dopaminergic neuron differentiation score (ReNCell VM [2]; library: Prestwick) 0

C[C@]12CCC(=O)C=C1CC[C@@H]1[C@@H]2C(=O)C[C@@]2(C)[C@H]1CC[C@]2(O)C(=O)CO [Cortisone]
inactive: neuronal differentiation score (ReNCell VM [1]; library: LOPAC) 0 | neuronal differentiation score (ReNCell VM [1]; library: Prestwick) 0 | dopaminergic neuron differentiation score (ReNCell VM [2]; library: LOPAC) 0 | dopaminergic neuron differentiation score (ReNCell VM [2]; library: Prestwick) 0

O=C(O)C=C1CCCc2ccccc2C1O (stereo not drawn)
inactive: neuronal differentiation score (ReNCell VM [1]; library: LOPAC) 0 | neuronal differentiation score (ReNCell VM [1]; library: Tocriscreen) 0 | dopaminergic neuron differentiation score (ReNCell VM [2]; library: LOPAC) 0 | dopaminergic neuron differentiation score (ReNCell VM [2]; library: Tocriscreen) 0

Taken from the listing, 2 compounds:
O=C(Nc1ccc([N+](=O)[O-])cc1Cl)c1cc(Cl)ccc1O [Niclosamide]
inactive: neuronal differentiation score (ReNCell VM [1]; library: LOPAC) 0 | neuronal differentiation score (ReNCell VM [1]; library: Prestwick) -1 | dopaminergic neuron differentiation score (ReNCell VM [2]; library: LOPAC) 0 | dopaminergic neuron differentiation score (ReNCell VM [2]; library: Prestwick) 0

C[C@]12CCC(=O)C=C1CC[C@@H]1[C@@H]2C(=O)C[C@@]2(C)[C@H]1CC[C@]2(O)C(=O)CO [Cortisone]
inactive: neuronal differentiation score (ReNCell VM [1]; library: LOPAC) 0 | neuronal differentiation score (ReNCell VM [1]; library: Prestwick) 0 | dopaminergic neuron differentiation score (ReNCell VM [2]; library: LOPAC) 0 | dopaminergic neuron differentiation score (ReNCell VM [2]; library: Prestwick) 0

(further entries)

CC(=O)N[C@@H](CC(=O)N[C@@H](CCC(=O)O)C(=O)O)C(=O)O [Spaglumic acid]
inactive: neuronal differentiation score (ReNCell VM [1]; library: Prestwick) 0 | neuronal differentiation score (ReNCell VM [1]; library: Tocriscreen) 0 | dopaminergic neuron differentiation score (ReNCell VM [2]; library: Prestwick) 0 | dopaminergic neuron differentiation score (ReNCell VM [2]; library: Tocriscreen) 0

CC(C)(C(=O)O)c1ccc(C(O)CCCN2CCC(C(O)(c3ccccc3)c3ccccc3)CC2)cc1 (stereo not drawn) [Fexofenadine hydrochloride]
inactive: neuronal differentiation score (ReNCell VM [1]; library: LOPAC) -1 | neuronal differentiation score (ReNCell VM [1]; library: Tocriscreen) 0 | dopaminergic neuron differentiation score (ReNCell VM [2]; library: LOPAC) 0 | dopaminergic neuron differentiation score (ReNCell VM [2]; library: Tocriscreen) 0

Cc1ncc(C[n+]2csc(CCO)c2C)c(N)n1 [Thiamine hydrochloride]
inactive: neuronal differentiation score (ReNCell VM [1]; library: Phytochemical) 0 | neuronal differentiation score (ReNCell VM [1]; library: Prestwick) 0 | dopaminergic neuron differentiation score (ReNCell VM [2]; library: Phytochemical) 0 | dopaminergic neuron differentiation score (ReNCell VM [2]; library: Prestwick) 0

CCn1cc(C(=O)O)c(=O)c2cc(F)c(N3CCNC(C)C3)c(F)c21 (stereo not drawn) [Lomefloxacin hydrochloride]
inactive: neuronal differentiation score (ReNCell VM [1]; library: LOPAC) 0 | neuronal differentiation score (ReNCell VM [1]; library: Prestwick) 0 | dopaminergic neuron differentiation score (ReNCell VM [2]; library: LOPAC) 0 | dopaminergic neuron differentiation score (ReNCell VM [2]; library: Prestwick) 0

Cc1noc(NS(=O)(=O)c2ccc(N)cc2)c1C [Sulfisoxazole]
inactive: neuronal differentiation score (ReNCell VM [1]; library: Prestwick) 0 | neuronal differentiation score (ReNCell VM [1]; library: Tocriscreen) 0 | dopaminergic neuron differentiation score (ReNCell VM [2]; library: Prestwick) 0 | dopaminergic neuron differentiation score (ReNCell VM [2]; library: Tocriscreen) 0

COC(=O)[C@H](Cc1ccccc1)NC(=O)[C@@H](N)CC(=O)O (H-Asp-Phe-OMe)
inactive: neuronal differentiation score (ReNCell VM [1]; library: Spectrum) 0 | dopaminergic neuron differentiation score (ReNCell VM [2]; library: Spectrum) 0

C=C(C)[C@@H]1CC=C(CO)CC1
inactive: neuronal differentiation score (ReNCell VM [1]; library: Spectrum) 0 | dopaminergic neuron differentiation score (ReNCell VM [2]; library: Spectrum) 0

Nc1ccc(-c2nc3ccc(-c4nc5ccc(N)cc5[nH]4)cc3[nH]2)cc1
inactive: neuronal differentiation score (ReNCell VM [1]; library: LOPAC) -2 | neuronal differentiation score (ReNCell VM [1]; library: Tocriscreen) 0 | dopaminergic neuron differentiation score (ReNCell VM [2]; library: LOPAC) 0 | dopaminergic neuron differentiation score (ReNCell VM [2]; library: Tocriscreen) 0

N=C(N)NC(=O)c1nc(Cl)c(N)nc1N [Amiloride hydrochloride]
active: neuronal differentiation score (ReNCell VM [1]; library: Tocriscreen) 2
inactive: neuronal differentiation score (ReNCell VM [1]; library: LOPAC) 0 | dopaminergic neuron differentiation score (ReNCell VM [2]; library: LOPAC) 0 | dopaminergic neuron differentiation score (ReNCell VM [2]; library: Tocriscreen) 0

COc1ccc(CCN(C)CCc2ccc(OC)c(OC)c2)cc1OC [YS-035 hydrochloride]
inactive: neuronal differentiation score (ReNCell VM [1]; library: LOPAC) 0 | neuronal differentiation score (ReNCell VM [1]; library: Tocriscreen) 0 | dopaminergic neuron differentiation score (ReNCell VM [2]; library: LOPAC) 0 | dopaminergic neuron differentiation score (ReNCell VM [2]; library: Tocriscreen) 0

CCC(=O)NCC[C@@H]1CCc2ccc3c(c21)CCO3
inactive: neuronal differentiation score (ReNCell VM [1]; library: Spectrum) 0 | dopaminergic neuron differentiation score (ReNCell VM [2]; library: Spectrum) 0

COc1ccccc1N1CCN(CC(O)COc2cccc3ccccc23)CC1 (stereo not drawn) [Naftopidil dihydrochloride]
inactive: neuronal differentiation score (ReNCell VM [1]; library: LOPAC) 0 | neuronal differentiation score (ReNCell VM [1]; library: Prestwick) 0 | dopaminergic neuron differentiation score (ReNCell VM [2]; library: LOPAC) 0 | dopaminergic neuron differentiation score (ReNCell VM [2]; library: Prestwick) 0

C[C@H]1C[C@H]2[C@@H]3CCC4=CC(=O)C=C[C@]4(C)[C@@]3(F)[C@@H](O)C[C@]2(C)[C@@]1(O)C(=O)CO [Betamethasone]
inactive: neuronal differentiation score (ReNCell VM [1]; library: LOPAC) 0 | neuronal differentiation score (ReNCell VM [1]; library: Prestwick) 0 | dopaminergic neuron differentiation score (ReNCell VM [2]; library: LOPAC) 0 | dopaminergic neuron differentiation score (ReNCell VM [2]; library: Prestwick) 0

Reference: the supplement of paper PMC4635364
